Reference: publication PMC11079228
These are yes or no findings as the source states them, for the method shown. In cells and extracts the contact can be indirect. These calls come from enrichment with a bait or labelling near it, and not all partners need be listed.

B1: ADRM1 (protein, UniProt Q9JMB5 1-407)
chain: MTTSGALFPSLVPGSRGSSTKYLVEFRAGKMSLKGTTVTPDKRKGLVYIQQTDDSLIHFCWKDRTSGTVEDDLIIFPDDCEFKRVPQCPSGRVYVLKFKAGSKRLFFWMQEPKTDQDEEHCRKVNECLNNPPMPGTLGASGSSGHELSALGGEGGLQSLLGNMSHSQLMQLIGPAGLGGLGGLGALTGPGLASLLGSSGPPASSSSSSSRSQSAAVTPSSTTSSARATPAPSAPAAASATSPSPAPSSGNGTSTAASPTQPIQLSDLQSILATMNVPAGPGGSQQVDLASVLTPEIMAPILANADVQERLLPYLPSGESLPQTAEEIQNTLTSPQFQQALGMFSAALASGQLGPLMCQFGLPAEAVEAANKGDVEAFAKAMQNNAKSDPKEGDTKDKKDEEEDMSLD
B2: MCM6 (protein, UniProt Q62724 1-507)
chain: LRDEEQTAESIKNQMTVKEWEKVFEMSQDQNLYHNLCTSLFPTIHGNDEVKRGVLLMLFGGVPKTTGEGTSLRGDINVCIVGDPSTAKSQFLKHVDEFSPRAVYTSGKASSASGLTAAVVRDEESHEFVIEAGALMLADNGVCCIDEFDKMDMRDQVAIHEAMEQQTISITKAGVKATLNARTSILAAANPVSGHYDRSKSLKQNINLSAPIMSRFDLFFILVDECNEVTDYAIARRIVDLHSRIEESIDRVYSLDDIRRYLLFARQFKPKISKESEDFIVEQYKRLRQRDGSGITKSSWRITVRQLESMIRLSESMARMHCCDEVQPKHVKEAFRLLNKSIIRVETPDVNLDQEEEIQMETDEGPGGINGHADSPAPVNGFNGSGEDASQETVPKPSLRLAFAEYCRISNLIVLHLRKMEEEEDESALKRSELVNWYLKEIESEIDSEEELINKKRIIEKVVHRLTHYDHVLIELTQAGLKGSSEGSESYEEDPYLVVNPNYLLED
B3: PSMD13 (protein, UniProt B0BN93 1-376)
chain: MKDVPAFLQQSQSSGPGQAAVWHRLEELYTKKLWHQLTLQVLDFVQDPCFAQGDGLIKLYENFISEFEHRVNPLSLVEIILHVVRQMTDPNVALTFLEKTREKVKSSDEAVILCKTAIGALKLNIGDLQATKETIEDVEEMLNNLPGVTSVHSRFYDLSSKYYQTIGNHASYYKDALRFLGCVDIKDLPVSEQQERAFTLGLAGLLGEGVFNFGELLMHPVLESLRNTDRQWLIDTLYAFNSGDVDRFQTLKSAWGQQPDLAANEAQLLRKIQLLCLMEMTFTRPANHRQLTFEEIAKSAKITVNKVELLVMKALSVGLVRGSIDEVDKRVHMTWVQPRVLDLQQIKGMKDRLELWCTDVKSMELLVEHQAQDILT
B4: PSMD9 (protein, UniProt Q9WTV5 1-222)
chain: MSSEEVRHRAESSEARAAAVSDIQELMRRKEEIEAQIKANYDVLESQKGIGMNEPLVDCEGYPRADVDLYQVRTARHNIICLQNDHKALMKQVEEALHQLHARDKEKQARDMAEAREEAMNRRLASDSPALPKAFARVNSISPGSPASIAGLQVDDEIVEFGSVNTQNFQSLQNVGTVVQHSEGKPLNVMVIRRGEKHQLRLTPTRWAGKGLLGCNITPLQR

target: Huntingtin-interacting protein 1 (rat) (rat (endogenous in rat FLS)); experiment: affinity purification with mass spectrometry; rabbit anti-rat-HIP1 antibody (20 μg per sample) on Dynabeads M-270 Epoxy; total lysates of rat FLS (one DA and one R6 cell line, each in triplicate), starved 24 h, then PDGFβ 100 ng/mL 30 min; lysis in water with protease and phosphatase inhibitors by three freeze-thaw cycles; elution with 8 M urea, LysC and trypsin, nano-LC-MS/MS, label-free quantitation

binding, binds:
B1
B2
B3
B4
